Consider 1 molecule from patent US20150374663A1.

The chains behind the UniProt entries cited, without tags or fusion partners. Residues count along the entry.
UniProt P13686, residues 22-325: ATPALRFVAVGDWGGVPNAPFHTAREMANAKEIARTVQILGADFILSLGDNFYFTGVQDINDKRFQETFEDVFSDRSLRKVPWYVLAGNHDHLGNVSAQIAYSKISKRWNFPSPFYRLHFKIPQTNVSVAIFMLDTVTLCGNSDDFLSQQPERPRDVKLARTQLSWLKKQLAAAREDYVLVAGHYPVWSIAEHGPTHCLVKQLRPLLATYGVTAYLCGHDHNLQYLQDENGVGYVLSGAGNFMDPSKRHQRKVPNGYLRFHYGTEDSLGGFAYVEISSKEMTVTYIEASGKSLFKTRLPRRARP

These are yes or no findings as the source states them, for the method shown. Some binding calls cover weakened binding; strength is not graded here.

The target of test [1] is TRAP deposited by osteoclasts on human cortical bone wafers (human) (UniProt P13686). In words: confocal imaging of fluorescently labeled peptide incubated overnight on human cortical bone wafers.
For test [2] the target is unchanged. As to the kind of experiment: confocal fluorescence microscopy of fluorescently labelled peptide incubated on human cortical bone wafers.

In the case of TPLSYLKGLVTVG [TRAP-binding peptide (TBP), …], the binding entry in test [1] and in test [2] was “binds” in each case.
